Reference: PubChem BioAssay AID1508588 (Peter MacCallum Cancer Centre, 2020)
Here is a random part of about 18,000 reagents. 790 of them (4.4%) count as active. 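Calls rest on a combination of fold-change classes in drug and vehicle arms, not all shown here.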 Entries without a mark were called inactive.

- Aim: 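Genome-wide search for knock-downs that heighten vemurafenib action in melanoma cells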 (primary screen)
- Cell system: human WM266.4 melanoma cells (BRAF V600 mutant)
- Knock-down reagent: siRNA pool against human genes, 40 nM
- Duration: 96 h from transfection to read-out
- Challenge: vemurafenib 300 nM (about IC25), added 48 h after transfection, for 48 h; comparison arm got DMSO vehicle only
- Read-out: 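Ratios to non-targeting siRNA for cell gain, counted as DAPI nuclei after minus before drug and averaged over two replicates, and for absorbance-read medium lactate per cell; both binned into fold-change classes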
- Scale: cell gain with vemurafenib: higher = more cell gain than with non-targeting siRNA; lactate per cell with vemurafenib: higher = more lactate made per cell
- Rule for the call: 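a knock-down counts as enhancing when its fold-change classes with vehicle and with vemurafenib, taken together, show a stronger drug effect on cell gain or lactate per cell; exact class pairs not stated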
- Meaning of the calls: active = enhances vemurafenib effect; inactive = no enhancement seen

no.	gene knocked down	cell gain with vemurafenib	lactate per cell with vemurafenib
1	JPH4	1.41	0.58
2	LHB	0.46	1.39
3	IRAG1	1.07	1.07
4	NOS1	1.4	0.67
5	WDR27	0.17	1.82
6	KICS2	1.03	1.21
7	DUSP23	0.48	0.84
8	ABHD6	0.89	0.68
9	PIGL	0.19	0.84
10	MTRES1	0.88	0.24
11	TUBB3	0.03	1.5
12	SPATA1	0.52	0.99
13	SMARCA5	0.4	0.8
14	CAT	0.69	1.1

5 entries from above, reformatted.
JPH4
- cell gain with vemurafenib: 1.41
- lactate per cell with vemurafenib: 0.58

LHB
- cell gain with vemurafenib: 0.46
- lactate per cell with vemurafenib: 1.39

IRAG1
- cell gain with vemurafenib: 1.07
- lactate per cell with vemurafenib: 1.07

NOS1
- cell gain with vemurafenib: 1.4
- lactate per cell with vemurafenib: 0.67

WDR27
- cell gain with vemurafenib: 0.17
- lactate per cell with vemurafenib: 1.82

Further records follow.
no.	gene knocked down	cell gain with vemurafenib	lactate per cell with vemurafenib
15	ZNF792	0.42	1.93
16	OPN1MW2	0.59	1.03
17	TPST1	0.6	0.69
18	KDM5A	0.74	0.48
19	ZDHHC4	0.65	1.3
20	PKP4	0.6	0.7
21	GATC	0.55	0.56
22	ADM2	0.82	0.9
23	UTRN	1.03	0.92
24	DRC5	0.2	0.79
25	UBE2Q2	0.64	0.6
26	C1orf105	0.72	0.8
27	C1QL3	0.63	0.26
28	ADCY8	0.18	0.71
29	IMPDH2	0.57	0.62
30	CLGN	0.36	0.82
31	HAPLN2	1.28	0.34
32	H1-8	0.26	1.17
33	CD302	0.41 (active)	0.26
34	MYCBP2	1.02	0.64
